# Laboratory results: ChEMBL document CHEMBL1777782, “Indole 5-carboxamide Thumb Pocket I inhibitors of HCV NS5B polymerase with nanomolar potency in cell-based subgenomic replicons (part 2): central amino acid linker and right-hand-side SAR studies” (Bioorg Med Chem Lett, 2011)
# Columns and labels:
# [1] = Selectivity ratio for mammalian DNA-dependent RNA polymerase II to HCV 1b NS5B RNA dependent RNA polymerase
# [2] = physchem; conditions: buffer, pH 7.2
# [3] = Permeability across apical to basolateral side in human Caco2 cells; conditions: Caco-2
# [4] = Selectivity ratio for polio virus RNA-dependent RNA polymerase to HCV 1b NS5B RNA dependent RNA polymerase
compound,measurement,setting,value
Cc1c(C(=O)O)sc2ccc(NC(=O)[C@]3(NC(=O)c4ccc5c(C6CCCCC6)c(-c6ccccn6)n(C)c5c4)CCCNC3)cc12,Ratio,[1],> 150
same,solubility thermodynamic at 24 h,[2],1 µg/mL
same,Papp A→B,[3],< 0.1 ×10⁻⁶ cm/s
same,Ratio,[4],> 150
